# Results taken from the supplement of paper PMC12067093, “Discovery and optimisation of a covalent ligand for TRIM25 and its application to targeted protein ubiquitination” (Chemical Science, 2025).
# Sequences of proteins named here, by UniProt entry; tags and fusion partners are left off. A change or cut given only in a name is not applied to a line headed by its entry.
# UniProt Q53H82: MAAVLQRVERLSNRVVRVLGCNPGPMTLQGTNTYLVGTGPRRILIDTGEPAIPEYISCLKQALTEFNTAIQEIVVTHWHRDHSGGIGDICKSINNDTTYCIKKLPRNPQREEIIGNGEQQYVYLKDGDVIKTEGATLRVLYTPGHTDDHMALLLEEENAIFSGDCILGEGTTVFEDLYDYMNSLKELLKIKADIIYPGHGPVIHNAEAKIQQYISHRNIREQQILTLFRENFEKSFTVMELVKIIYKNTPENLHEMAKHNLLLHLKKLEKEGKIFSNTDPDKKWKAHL
# UniProt Q96JN0: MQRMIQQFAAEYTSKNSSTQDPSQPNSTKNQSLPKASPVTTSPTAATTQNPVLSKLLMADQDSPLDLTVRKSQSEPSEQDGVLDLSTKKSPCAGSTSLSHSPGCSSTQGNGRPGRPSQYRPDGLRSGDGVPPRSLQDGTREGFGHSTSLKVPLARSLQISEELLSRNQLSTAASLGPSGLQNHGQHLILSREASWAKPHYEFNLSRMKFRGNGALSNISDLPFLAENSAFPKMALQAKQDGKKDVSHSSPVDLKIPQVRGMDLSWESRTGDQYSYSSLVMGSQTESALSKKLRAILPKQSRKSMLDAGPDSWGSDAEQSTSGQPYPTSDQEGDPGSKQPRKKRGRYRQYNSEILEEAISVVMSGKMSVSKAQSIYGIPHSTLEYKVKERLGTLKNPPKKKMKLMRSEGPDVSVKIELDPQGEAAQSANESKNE
# UniProt P33176: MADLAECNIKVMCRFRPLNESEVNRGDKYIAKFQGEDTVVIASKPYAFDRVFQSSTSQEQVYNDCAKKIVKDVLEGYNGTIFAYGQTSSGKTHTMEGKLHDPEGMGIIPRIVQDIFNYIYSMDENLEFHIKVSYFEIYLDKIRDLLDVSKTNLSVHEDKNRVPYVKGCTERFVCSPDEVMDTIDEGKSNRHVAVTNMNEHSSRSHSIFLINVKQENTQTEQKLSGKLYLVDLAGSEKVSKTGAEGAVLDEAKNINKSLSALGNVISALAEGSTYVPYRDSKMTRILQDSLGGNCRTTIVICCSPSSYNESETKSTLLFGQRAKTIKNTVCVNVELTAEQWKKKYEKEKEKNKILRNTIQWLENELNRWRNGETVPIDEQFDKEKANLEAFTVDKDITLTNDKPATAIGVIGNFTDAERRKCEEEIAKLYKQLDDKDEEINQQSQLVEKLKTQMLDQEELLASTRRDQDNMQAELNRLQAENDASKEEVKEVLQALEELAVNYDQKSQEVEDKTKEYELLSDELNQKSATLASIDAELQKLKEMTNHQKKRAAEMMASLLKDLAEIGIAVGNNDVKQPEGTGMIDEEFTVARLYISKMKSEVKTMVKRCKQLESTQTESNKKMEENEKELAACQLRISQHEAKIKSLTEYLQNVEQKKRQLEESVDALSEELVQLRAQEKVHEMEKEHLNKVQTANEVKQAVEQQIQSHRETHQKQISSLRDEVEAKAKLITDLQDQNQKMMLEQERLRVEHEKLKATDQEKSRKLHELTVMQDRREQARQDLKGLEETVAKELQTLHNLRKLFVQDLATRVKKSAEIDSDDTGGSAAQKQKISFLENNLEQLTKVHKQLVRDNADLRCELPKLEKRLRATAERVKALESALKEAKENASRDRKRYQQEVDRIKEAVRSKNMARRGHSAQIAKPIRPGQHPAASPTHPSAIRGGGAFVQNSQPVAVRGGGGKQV
# UniProt Q9P2J5: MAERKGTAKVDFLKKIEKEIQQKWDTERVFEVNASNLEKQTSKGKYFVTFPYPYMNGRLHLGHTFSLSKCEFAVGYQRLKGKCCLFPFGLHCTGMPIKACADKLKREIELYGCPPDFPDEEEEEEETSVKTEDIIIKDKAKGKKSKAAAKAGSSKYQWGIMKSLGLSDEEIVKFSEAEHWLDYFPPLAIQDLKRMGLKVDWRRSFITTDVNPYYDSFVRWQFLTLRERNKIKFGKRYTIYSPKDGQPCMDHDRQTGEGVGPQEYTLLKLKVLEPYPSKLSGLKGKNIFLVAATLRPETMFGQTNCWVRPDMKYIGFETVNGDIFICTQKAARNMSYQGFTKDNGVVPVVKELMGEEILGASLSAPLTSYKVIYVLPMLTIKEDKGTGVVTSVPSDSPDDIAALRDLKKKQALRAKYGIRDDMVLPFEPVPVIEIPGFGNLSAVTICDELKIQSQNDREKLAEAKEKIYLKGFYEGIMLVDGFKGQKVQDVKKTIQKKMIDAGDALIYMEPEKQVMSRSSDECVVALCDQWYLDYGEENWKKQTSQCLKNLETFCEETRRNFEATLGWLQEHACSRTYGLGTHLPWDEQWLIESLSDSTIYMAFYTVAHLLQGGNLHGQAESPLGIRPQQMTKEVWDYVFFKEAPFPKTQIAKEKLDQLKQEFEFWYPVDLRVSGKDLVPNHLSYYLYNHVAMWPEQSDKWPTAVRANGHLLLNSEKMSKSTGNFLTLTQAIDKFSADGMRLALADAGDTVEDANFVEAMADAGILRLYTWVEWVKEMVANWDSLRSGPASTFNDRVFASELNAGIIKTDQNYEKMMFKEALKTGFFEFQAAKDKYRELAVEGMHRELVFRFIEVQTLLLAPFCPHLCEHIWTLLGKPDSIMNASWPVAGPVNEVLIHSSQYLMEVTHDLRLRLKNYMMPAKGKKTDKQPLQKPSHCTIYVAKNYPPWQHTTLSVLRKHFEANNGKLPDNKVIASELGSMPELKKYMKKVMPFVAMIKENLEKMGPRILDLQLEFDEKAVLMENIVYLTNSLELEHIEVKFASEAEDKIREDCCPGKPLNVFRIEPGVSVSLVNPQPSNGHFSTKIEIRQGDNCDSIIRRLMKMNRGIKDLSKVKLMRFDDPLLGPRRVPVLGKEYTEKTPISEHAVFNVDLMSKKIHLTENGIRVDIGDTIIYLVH
# UniProt P07195, whole entry, looked up: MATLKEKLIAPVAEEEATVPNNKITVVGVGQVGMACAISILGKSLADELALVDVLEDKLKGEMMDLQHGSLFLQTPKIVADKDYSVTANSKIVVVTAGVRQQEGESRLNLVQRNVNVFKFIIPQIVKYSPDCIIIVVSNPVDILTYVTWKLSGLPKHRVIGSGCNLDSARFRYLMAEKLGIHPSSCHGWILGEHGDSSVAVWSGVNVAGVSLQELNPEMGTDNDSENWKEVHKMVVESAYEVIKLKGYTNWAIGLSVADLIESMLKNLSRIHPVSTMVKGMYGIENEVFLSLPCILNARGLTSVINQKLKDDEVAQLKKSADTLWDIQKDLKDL
# UniProt Q96JM7: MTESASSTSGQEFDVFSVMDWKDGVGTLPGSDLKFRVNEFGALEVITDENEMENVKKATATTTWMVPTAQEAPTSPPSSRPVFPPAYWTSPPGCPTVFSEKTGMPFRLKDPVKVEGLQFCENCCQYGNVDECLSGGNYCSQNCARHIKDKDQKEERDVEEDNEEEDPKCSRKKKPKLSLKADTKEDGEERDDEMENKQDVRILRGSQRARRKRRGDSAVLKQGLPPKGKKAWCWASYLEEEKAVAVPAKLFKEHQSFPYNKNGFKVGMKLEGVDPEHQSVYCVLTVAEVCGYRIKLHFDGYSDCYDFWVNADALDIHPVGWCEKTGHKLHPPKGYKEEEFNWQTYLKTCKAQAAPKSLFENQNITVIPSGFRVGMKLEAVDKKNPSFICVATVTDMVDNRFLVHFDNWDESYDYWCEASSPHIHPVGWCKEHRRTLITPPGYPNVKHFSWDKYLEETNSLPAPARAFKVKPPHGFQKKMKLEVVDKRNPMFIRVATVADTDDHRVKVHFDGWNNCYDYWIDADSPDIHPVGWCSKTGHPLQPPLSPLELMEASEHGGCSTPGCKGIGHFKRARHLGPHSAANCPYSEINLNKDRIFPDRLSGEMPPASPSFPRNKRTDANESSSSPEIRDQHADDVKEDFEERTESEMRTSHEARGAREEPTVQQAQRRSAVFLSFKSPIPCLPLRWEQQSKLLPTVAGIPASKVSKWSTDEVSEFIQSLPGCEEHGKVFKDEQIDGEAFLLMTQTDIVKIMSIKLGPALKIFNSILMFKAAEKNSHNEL
# UniProt Q9BW19: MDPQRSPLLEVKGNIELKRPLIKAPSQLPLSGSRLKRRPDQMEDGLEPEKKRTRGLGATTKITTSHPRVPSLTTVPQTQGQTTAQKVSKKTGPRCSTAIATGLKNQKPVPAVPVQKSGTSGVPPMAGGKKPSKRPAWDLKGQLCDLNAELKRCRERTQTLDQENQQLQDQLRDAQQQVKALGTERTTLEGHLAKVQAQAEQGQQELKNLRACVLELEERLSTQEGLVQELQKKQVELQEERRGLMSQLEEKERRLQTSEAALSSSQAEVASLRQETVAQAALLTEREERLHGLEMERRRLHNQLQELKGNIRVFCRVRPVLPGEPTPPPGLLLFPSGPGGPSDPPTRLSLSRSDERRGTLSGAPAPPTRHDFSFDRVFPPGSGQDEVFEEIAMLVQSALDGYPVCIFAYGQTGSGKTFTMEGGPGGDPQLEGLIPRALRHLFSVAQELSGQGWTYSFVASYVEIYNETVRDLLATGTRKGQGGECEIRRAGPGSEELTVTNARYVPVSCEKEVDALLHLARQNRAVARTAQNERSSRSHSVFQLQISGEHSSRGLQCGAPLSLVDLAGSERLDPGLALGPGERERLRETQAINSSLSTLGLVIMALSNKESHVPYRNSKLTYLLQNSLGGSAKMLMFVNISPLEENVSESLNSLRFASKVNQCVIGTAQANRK
# UniProt Q16719: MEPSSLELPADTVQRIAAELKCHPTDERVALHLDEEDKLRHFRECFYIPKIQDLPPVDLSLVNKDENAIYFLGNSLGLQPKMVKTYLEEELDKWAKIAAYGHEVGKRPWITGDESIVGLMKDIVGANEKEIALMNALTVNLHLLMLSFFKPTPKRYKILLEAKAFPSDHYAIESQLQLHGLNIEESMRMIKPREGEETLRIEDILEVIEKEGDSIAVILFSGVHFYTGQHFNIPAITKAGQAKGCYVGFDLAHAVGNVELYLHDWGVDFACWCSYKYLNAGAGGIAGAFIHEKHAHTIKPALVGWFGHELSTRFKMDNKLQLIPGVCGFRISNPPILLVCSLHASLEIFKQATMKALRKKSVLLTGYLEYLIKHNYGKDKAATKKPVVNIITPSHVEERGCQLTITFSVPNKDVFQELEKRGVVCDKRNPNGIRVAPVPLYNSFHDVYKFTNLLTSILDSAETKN
# UniProt Q86UP2: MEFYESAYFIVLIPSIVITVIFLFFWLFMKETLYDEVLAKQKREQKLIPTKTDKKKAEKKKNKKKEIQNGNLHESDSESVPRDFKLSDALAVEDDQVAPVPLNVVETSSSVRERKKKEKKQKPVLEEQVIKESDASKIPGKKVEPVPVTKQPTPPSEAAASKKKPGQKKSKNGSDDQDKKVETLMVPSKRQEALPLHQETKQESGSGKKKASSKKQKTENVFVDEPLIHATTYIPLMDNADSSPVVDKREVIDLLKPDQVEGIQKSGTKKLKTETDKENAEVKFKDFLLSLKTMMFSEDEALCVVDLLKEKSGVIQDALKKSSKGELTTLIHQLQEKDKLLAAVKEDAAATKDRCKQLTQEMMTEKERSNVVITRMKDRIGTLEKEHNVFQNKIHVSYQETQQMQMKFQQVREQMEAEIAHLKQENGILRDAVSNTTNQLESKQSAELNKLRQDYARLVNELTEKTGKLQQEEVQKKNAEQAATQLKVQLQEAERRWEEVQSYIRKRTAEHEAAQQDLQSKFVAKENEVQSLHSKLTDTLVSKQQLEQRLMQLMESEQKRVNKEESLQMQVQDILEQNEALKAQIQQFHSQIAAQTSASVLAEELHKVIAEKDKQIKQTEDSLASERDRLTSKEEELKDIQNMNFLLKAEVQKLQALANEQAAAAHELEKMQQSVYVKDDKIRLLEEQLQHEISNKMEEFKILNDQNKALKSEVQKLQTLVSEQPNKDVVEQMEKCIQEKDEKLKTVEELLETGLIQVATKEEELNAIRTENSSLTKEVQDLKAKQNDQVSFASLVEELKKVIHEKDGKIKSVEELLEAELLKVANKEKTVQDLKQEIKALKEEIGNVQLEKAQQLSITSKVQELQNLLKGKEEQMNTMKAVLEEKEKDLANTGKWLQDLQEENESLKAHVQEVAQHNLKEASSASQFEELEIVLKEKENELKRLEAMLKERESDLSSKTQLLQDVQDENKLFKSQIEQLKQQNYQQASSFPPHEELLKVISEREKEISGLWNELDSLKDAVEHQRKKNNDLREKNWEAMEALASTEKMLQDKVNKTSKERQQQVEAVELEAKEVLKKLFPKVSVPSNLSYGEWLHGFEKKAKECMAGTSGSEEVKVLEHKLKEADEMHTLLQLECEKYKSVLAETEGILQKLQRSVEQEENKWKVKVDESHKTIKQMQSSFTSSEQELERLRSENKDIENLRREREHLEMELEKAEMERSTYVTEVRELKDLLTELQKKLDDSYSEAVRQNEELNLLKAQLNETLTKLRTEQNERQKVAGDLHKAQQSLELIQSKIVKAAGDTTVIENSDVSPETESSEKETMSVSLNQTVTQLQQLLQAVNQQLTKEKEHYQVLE
# Some of the results follow.
# Compound: Cc1cc(ccc1-c1ccccc1)C(=O)N1CCCN(CC1)C(=O)CCl [compound 10]
# Assay: probe-labelled cysteine peptide fold change vs DMSO (competition) (log2 fold change); higher = less target engagement (more negative = stronger competition)
# Conditions: THP-1, incubation time: 4 h
# 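Also: competitive profiling in live THP-1 cells: cysteine peptides tagged with an iodoacetamide desthiobiotin (IA-DTB) probe, intensity after compound treatment relative to DMSO-treated cells.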
Target,probe-labelled cysteine peptide fold change (10 µM),probe-labelled cysteine peptide fold change (50 µM)
KLC3_Q6P597_314_EAEPLCQR (UniProt Q6P597),0.0555,-0.222
LACTB2_Q53H82_100_SINNDTTYCIK (UniProt Q53H82),0.0283,-0.176
LCP1_P13796_336_AECMLQQAER (UniProt P13796),-0.0514,-0.006
LAGE3_Q14657_23_GGHSCR (UniProt Q14657),-0.138,-0.286
LEMD3_Q9Y2U8_814_CSDNDGIVHIAVDK (UniProt Q9Y2U8),0.0911,-0.0634
KLHL22_Q53GT1_11_AEEQEFTQLCK (UniProt Q53GT1),-0.27,-0.131
LCOR_Q96JN0-3_1334_MECPDALAVESK (UniProt Q96JN0),0.0815,-0.0619
LANCL1_O43813_183_IPQSHIQQICETILTSGENLAR (UniProt O43813),0.14,0.284
KIF5B_P33176_7_ADLAECNIK (UniProt P33176),-0.027,-0.0965
LARS_Q9P2J5_554_NLETFCEETR (UniProt Q9P2J5),-0.124,-0.054
KLHL26_Q53HC5_603_DLHFPESFAGIACAPVLLPR (UniProt Q53HC5),-0.0715,-0.178
LDHB_P07195_294_GMYGIENEVFLSLPCILNAR (UniProt P07195),0.0389,0.0679
KLHL11_Q9NVR0_526_AVITCYDTETR (UniProt Q9NVR0),0.05,-0.00351
LDHB_P07195_36_ITVVGVGQVGMACAISILGK (UniProt P07195),0.0756,-0.0044
L3MBTL3_Q96JM7_583_HLGPHSAANCPYSEINLNK (UniProt Q96JM7),0.168,0.0108
LDAH_Q9H6V9_274_LTFYYGTIDPWCPK (UniProt Q9H6V9),-0.145,-0.0225
LACTB2_Q53H82_58_RILIDTGEPAIPEYISCLK (UniProt Q53H82),-0.124,-0.253
LAMC1_P11047_804_RCELCDDGYFGDPLGR (UniProt P11047),0.383,0.59
KPNA4_O00629_57_NVPHEDICEDSDIDGDYR (UniProt O00629),-0.294,-0.212
LENG8_Q96PV6_600_EKQDYAFACEQMK (UniProt Q96PV6),0.0437,-0.171
LARP7_Q4G0J3_438_TANREECR (UniProt Q4G0J3),0.0898,-0.0816

# Quoted at random: two entries already listed
Target,probe-labelled cysteine peptide fold change (10 µM),probe-labelled cysteine peptide fold change (50 µM)
LEMD3_Q9Y2U8_814_CSDNDGIVHIAVDK (UniProt Q9Y2U8),0.0911,-0.0634
LACTB2_Q53H82_58_RILIDTGEPAIPEYISCLK (UniProt Q53H82),-0.124,-0.253

# The list continues:

Target,probe-labelled cysteine peptide fold change (10 µM),probe-labelled cysteine peptide fold change (50 µM)
LANCL2_Q9NS86_149_RVTFLCGDAGPLAVGAVIYHK (UniProt Q9NS86),-0.376,-0.276
KIF3A_Q9Y496_230_SHAIFTITIECSEK (UniProt Q9Y496),-0.0999,0.132
KIFC1_Q9BW19_212_ACVLELEER (UniProt Q9BW19),0.0436,0.158
LARS_Q9P2J5_83+84_CCLFPFGLHCTGMPIK (UniProt Q9P2J5),-0.0152,-0.325
LEMD2_Q8NC56_253_LLPVDCER (UniProt Q8NC56),-0.171,0.185
KYNU_Q16719_22_CHPTDER (UniProt Q16719),0.483,0.171
LCOR_Q96JN0-3_304_ILEGQTTGQEQDTNVNICEDGK (UniProt Q96JN0),-0.0082,-0.0984
KLC1_Q07866_436_EFGSVDDENKPIWMHAEEREECK (UniProt Q07866),0.102,-0.19
KIFC1_Q9BW19_557_GLQCGAPLSLVDLAGSER (UniProt Q9BW19),-0.0151,0.167
KYNU_Q16719_425_GVVCDK (UniProt Q16719),-0.0714,-0.329
KIF5B_P33176_632_ELAACQLR (UniProt P33176),-0.00725,-0.0173
L3MBTL3_Q96JM7_389_KNPSFICVATVTDMVDNR (UniProt Q96JM7),-0.0217,-0.0604
KTN1_Q86UP2_1136_EADEMHTLLQLECEK (UniProt Q86UP2),0.171,0.315
KTN1_Q86UP2_1105_ECMAGTSGSEEVK (UniProt Q86UP2),-0.0527,-0.372
KMT2D_O14686_214_TLQLLCPEHSEGAAYLEEAR (UniProt O14686),-0.0158,0.2
KLHDC3_Q9BQ90_355_LAVIQYNLDQSCLPHDIR (UniProt Q9BQ90),0.16,0.34
KYNU_Q16719_401_GCQLTITFSVPNK (UniProt Q16719),0.17,0.0566
LDHD_Q86WU2_392_GYSTDVCVPISR (UniProt Q86WU2),-0.0614,-0.00939
LARP4B_Q92615_590_EPSVPASCAVSATYER (UniProt Q92615),-0.245,-0.00819
KLHL7_Q8IXQ5_44_TLCDVILMVQER (UniProt Q8IXQ5),0.233,0.388
